These are yes or no findings as the source states them, for the method shown. In cells and extracts the contact can be indirect. Binding can be weak; no strength is given. Tags and fused reporters may be left off the sequences shown.
T1: N. benthamiana NRC3 (NbNRC3c), myc-tagged (N. benthamiana)
T1 sequence: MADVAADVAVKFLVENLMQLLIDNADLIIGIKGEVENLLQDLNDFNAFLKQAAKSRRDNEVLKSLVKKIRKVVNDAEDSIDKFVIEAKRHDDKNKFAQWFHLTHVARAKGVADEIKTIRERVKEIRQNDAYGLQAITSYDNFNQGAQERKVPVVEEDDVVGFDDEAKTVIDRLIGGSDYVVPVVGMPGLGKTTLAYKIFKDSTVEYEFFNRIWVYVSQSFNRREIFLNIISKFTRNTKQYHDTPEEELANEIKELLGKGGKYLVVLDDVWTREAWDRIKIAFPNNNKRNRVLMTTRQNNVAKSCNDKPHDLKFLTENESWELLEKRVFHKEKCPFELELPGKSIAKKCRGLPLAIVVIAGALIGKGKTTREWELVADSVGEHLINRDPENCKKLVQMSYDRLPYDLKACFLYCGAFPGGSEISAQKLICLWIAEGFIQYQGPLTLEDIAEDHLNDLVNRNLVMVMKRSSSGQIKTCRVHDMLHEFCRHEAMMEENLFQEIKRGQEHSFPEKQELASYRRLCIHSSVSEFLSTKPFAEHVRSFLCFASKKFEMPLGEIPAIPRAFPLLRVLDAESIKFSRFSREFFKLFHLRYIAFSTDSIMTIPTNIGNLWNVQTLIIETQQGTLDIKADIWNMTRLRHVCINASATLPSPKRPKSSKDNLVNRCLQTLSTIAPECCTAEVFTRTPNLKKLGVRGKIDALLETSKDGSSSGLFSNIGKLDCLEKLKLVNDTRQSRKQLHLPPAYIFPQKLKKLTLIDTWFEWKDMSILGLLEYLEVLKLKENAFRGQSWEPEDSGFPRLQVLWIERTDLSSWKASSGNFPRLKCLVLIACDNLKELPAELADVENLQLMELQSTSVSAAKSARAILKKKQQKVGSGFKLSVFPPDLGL

T2: NRC3 variant … (NbNRC3c with six residues of SlNRC3a), myc-tagged (N. benthamiana)
T2 sequence: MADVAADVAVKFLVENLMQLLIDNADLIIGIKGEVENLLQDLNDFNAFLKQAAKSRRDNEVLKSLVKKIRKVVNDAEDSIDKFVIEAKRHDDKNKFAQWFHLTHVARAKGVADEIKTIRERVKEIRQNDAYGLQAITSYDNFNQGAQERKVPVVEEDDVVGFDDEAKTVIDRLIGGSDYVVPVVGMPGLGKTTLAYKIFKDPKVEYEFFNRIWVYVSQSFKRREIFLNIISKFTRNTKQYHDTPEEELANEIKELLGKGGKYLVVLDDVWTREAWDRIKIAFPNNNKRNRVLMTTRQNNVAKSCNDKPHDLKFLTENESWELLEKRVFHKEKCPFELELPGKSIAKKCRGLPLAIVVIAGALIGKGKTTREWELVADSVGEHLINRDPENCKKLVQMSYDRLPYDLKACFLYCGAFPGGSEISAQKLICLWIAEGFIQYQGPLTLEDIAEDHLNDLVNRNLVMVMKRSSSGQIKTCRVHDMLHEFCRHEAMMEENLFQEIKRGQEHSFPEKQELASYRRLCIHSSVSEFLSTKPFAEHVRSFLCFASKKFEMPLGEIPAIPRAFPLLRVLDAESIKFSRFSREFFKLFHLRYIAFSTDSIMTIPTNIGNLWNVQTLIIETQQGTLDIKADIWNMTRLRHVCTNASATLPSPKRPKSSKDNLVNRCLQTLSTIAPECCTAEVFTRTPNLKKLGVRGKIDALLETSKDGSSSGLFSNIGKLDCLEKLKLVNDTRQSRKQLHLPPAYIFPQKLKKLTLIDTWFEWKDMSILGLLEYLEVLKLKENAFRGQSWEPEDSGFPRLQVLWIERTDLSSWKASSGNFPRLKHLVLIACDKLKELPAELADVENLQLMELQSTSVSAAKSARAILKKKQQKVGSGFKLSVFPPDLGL


Columns and labels:
[1] = target: T1, N. benthamiana NRC3 (NbNRC3c), myc-tagged (N. benthamiana); experiment: co-IP; RFP-Rpi-blb2 and NRC3s-myc co-expressed in N. benthamiana; leaves at 30 hpi; anti-c-myc beads, 4°C 3 h; five washes (10% glycerol, 25 mM Tris pH7.5, 1 mM EDTA, 150 mM NaCl, 0.2% IGEPAL); blots with α-RFP and α-myc
[2] = target: T2, NRC3 variant … (NbNRC3c with six residues of SlNRC3a), myc-tagged (N. benthamiana); experiment: as above
[3] = target: RFP-Rpi-blb2; experiment: co-IP; RFP-Rpi-blb2 and NRC3s-myc co-expressed in N. benthamiana with or without Flag-AVRblb2; leaves at 30 hpi; RFP-Trap magnetic agarose, 4°C 3 h; five washes (10% glycerol, 25 mM Tris pH7.5, 1 mM EDTA, 150 mM NaCl, 0.2% IGEPAL); blots with α-RFP and α-myc

binding [1] | binding [2] | binding [3] | Molecule
binds weakly | binds weakly |  | RFP-Rpi-blb2
 |  | binds weakly | N. benthamiana NRC3 (NbNRC3c), myc-tagged (protein, UniProt A0A5J6DCA3 1-888) MADVAADVAVKFLVENLMQLLIDNADLIIGIKGEVENLLQDLNDFNAFLKQAAKSRRDNEVLKSLVKKIRKVVNDAEDSIDKFVIEAKRHDDKNKFAQWFHLTHVARAKGVADEIKTIRERVKEIRQNDAYGLQAITSYDNFNQGAQERKVPVVEEDDVVGFDDEAKTVIDRLIGGSDYVVPVVGMPGLGKTTLAYKIFKDSTVEYEFFNRIWVYVSQSFNRREIFLNIISKFTRNTKQYHDTPEEELANEIKELLGKGGKYLVVLDDVWTREAWDRIKIAFPNNNKRNRVLMTTRQNNVAKSCNDKPHDLKFLTENESWELLEKRVFHKEKCPFELELPGKSIAKKCRGLPLAIVVIAGALIGKGKTTREWELVADSVGEHLINRDPENCKKLVQMSYDRLPYDLKACFLYCGAFPGGSEISAQKLICLWIAEGFIQYQGPLTLEDIAEDHLNDLVNRNLVMVMKRSSSGQIKTCRVHDMLHEFCRHEAMMEENLFQEIKRGQEHSFPEKQELASYRRLCIHSSVSEFLSTKPFAEHVRSFLCFASKKFEMPLGEIPAIPRAFPLLRVLDAESIKFSRFSREFFKLFHLRYIAFSTDSIMTIPTNIGNLWNVQTLIIETQQGTLDIKADIWNMTRLRHVCINASATLPSPKRPKSSKDNLVNRCLQTLSTIAPECCTAEVFTRTPNLKKLGVRGKIDALLETSKDGSSSGLFSNIGKLDCLEKLKLVNDTRQSRKQLHLPPAYIFPQKLKKLTLIDTWFEWKDMSILGLLEYLEVLKLKENAFRGQSWEPEDSGFPRLQVLWIERTDLSSWKASSGNFPRLKCLVLIACDNLKELPAELADVENLQLMELQSTSVSAAKSARAILKKKQQKVGSGFKLSVFPPDLGL
 |  | binds weakly | NRC3 variant … (NbNRC3c with six residues of SlNRC3a), myc-tagged (protein, UniProt A0A5J6DCA3 1-888) MADVAADVAVKFLVENLMQLLIDNADLIIGIKGEVENLLQDLNDFNAFLKQAAKSRRDNEVLKSLVKKIRKVVNDAEDSIDKFVIEAKRHDDKNKFAQWFHLTHVARAKGVADEIKTIRERVKEIRQNDAYGLQAITSYDNFNQGAQERKVPVVEEDDVVGFDDEAKTVIDRLIGGSDYVVPVVGMPGLGKTTLAYKIFKDPKVEYEFFNRIWVYVSQSFKRREIFLNIISKFTRNTKQYHDTPEEELANEIKELLGKGGKYLVVLDDVWTREAWDRIKIAFPNNNKRNRVLMTTRQNNVAKSCNDKPHDLKFLTENESWELLEKRVFHKEKCPFELELPGKSIAKKCRGLPLAIVVIAGALIGKGKTTREWELVADSVGEHLINRDPENCKKLVQMSYDRLPYDLKACFLYCGAFPGGSEISAQKLICLWIAEGFIQYQGPLTLEDIAEDHLNDLVNRNLVMVMKRSSSGQIKTCRVHDMLHEFCRHEAMMEENLFQEIKRGQEHSFPEKQELASYRRLCIHSSVSEFLSTKPFAEHVRSFLCFASKKFEMPLGEIPAIPRAFPLLRVLDAESIKFSRFSREFFKLFHLRYIAFSTDSIMTIPTNIGNLWNVQTLIIETQQGTLDIKADIWNMTRLRHVCTNASATLPSPKRPKSSKDNLVNRCLQTLSTIAPECCTAEVFTRTPNLKKLGVRGKIDALLETSKDGSSSGLFSNIGKLDCLEKLKLVNDTRQSRKQLHLPPAYIFPQKLKKLTLIDTWFEWKDMSILGLLEYLEVLKLKENAFRGQSWEPEDSGFPRLQVLWIERTDLSSWKASSGNFPRLKHLVLIACDKLKELPAELADVENLQLMELQSTSVSAAKSARAILKKKQQKVGSGFKLSVFPPDLGL

— PMC11421798, “Subfunctionalization of NRC3 altered the genetic structure of the Nicotiana NRC network” (PLOS Genetics, 2024)
